The assay addresses Histone methyltransferase MLL1/KMT2A (human (endogenous in HCT116)) (UniProt Q03164). Put plainly: co-IP; HCT116 cells lysed in NP40 lysis buffer (50 mM Tris pH 7.4, 150 mM NaCl, 0.5% NP40); supernatant incubated with protein G beads and anti-MLL1 or anti-JUN antibody at 4 °C for 4 h; three washes with lysis buffer; Western blot of MLL1 or JUN.

By UniProt entry, the sequences of proteins in these tests, tags left out.
UniProt Q03164: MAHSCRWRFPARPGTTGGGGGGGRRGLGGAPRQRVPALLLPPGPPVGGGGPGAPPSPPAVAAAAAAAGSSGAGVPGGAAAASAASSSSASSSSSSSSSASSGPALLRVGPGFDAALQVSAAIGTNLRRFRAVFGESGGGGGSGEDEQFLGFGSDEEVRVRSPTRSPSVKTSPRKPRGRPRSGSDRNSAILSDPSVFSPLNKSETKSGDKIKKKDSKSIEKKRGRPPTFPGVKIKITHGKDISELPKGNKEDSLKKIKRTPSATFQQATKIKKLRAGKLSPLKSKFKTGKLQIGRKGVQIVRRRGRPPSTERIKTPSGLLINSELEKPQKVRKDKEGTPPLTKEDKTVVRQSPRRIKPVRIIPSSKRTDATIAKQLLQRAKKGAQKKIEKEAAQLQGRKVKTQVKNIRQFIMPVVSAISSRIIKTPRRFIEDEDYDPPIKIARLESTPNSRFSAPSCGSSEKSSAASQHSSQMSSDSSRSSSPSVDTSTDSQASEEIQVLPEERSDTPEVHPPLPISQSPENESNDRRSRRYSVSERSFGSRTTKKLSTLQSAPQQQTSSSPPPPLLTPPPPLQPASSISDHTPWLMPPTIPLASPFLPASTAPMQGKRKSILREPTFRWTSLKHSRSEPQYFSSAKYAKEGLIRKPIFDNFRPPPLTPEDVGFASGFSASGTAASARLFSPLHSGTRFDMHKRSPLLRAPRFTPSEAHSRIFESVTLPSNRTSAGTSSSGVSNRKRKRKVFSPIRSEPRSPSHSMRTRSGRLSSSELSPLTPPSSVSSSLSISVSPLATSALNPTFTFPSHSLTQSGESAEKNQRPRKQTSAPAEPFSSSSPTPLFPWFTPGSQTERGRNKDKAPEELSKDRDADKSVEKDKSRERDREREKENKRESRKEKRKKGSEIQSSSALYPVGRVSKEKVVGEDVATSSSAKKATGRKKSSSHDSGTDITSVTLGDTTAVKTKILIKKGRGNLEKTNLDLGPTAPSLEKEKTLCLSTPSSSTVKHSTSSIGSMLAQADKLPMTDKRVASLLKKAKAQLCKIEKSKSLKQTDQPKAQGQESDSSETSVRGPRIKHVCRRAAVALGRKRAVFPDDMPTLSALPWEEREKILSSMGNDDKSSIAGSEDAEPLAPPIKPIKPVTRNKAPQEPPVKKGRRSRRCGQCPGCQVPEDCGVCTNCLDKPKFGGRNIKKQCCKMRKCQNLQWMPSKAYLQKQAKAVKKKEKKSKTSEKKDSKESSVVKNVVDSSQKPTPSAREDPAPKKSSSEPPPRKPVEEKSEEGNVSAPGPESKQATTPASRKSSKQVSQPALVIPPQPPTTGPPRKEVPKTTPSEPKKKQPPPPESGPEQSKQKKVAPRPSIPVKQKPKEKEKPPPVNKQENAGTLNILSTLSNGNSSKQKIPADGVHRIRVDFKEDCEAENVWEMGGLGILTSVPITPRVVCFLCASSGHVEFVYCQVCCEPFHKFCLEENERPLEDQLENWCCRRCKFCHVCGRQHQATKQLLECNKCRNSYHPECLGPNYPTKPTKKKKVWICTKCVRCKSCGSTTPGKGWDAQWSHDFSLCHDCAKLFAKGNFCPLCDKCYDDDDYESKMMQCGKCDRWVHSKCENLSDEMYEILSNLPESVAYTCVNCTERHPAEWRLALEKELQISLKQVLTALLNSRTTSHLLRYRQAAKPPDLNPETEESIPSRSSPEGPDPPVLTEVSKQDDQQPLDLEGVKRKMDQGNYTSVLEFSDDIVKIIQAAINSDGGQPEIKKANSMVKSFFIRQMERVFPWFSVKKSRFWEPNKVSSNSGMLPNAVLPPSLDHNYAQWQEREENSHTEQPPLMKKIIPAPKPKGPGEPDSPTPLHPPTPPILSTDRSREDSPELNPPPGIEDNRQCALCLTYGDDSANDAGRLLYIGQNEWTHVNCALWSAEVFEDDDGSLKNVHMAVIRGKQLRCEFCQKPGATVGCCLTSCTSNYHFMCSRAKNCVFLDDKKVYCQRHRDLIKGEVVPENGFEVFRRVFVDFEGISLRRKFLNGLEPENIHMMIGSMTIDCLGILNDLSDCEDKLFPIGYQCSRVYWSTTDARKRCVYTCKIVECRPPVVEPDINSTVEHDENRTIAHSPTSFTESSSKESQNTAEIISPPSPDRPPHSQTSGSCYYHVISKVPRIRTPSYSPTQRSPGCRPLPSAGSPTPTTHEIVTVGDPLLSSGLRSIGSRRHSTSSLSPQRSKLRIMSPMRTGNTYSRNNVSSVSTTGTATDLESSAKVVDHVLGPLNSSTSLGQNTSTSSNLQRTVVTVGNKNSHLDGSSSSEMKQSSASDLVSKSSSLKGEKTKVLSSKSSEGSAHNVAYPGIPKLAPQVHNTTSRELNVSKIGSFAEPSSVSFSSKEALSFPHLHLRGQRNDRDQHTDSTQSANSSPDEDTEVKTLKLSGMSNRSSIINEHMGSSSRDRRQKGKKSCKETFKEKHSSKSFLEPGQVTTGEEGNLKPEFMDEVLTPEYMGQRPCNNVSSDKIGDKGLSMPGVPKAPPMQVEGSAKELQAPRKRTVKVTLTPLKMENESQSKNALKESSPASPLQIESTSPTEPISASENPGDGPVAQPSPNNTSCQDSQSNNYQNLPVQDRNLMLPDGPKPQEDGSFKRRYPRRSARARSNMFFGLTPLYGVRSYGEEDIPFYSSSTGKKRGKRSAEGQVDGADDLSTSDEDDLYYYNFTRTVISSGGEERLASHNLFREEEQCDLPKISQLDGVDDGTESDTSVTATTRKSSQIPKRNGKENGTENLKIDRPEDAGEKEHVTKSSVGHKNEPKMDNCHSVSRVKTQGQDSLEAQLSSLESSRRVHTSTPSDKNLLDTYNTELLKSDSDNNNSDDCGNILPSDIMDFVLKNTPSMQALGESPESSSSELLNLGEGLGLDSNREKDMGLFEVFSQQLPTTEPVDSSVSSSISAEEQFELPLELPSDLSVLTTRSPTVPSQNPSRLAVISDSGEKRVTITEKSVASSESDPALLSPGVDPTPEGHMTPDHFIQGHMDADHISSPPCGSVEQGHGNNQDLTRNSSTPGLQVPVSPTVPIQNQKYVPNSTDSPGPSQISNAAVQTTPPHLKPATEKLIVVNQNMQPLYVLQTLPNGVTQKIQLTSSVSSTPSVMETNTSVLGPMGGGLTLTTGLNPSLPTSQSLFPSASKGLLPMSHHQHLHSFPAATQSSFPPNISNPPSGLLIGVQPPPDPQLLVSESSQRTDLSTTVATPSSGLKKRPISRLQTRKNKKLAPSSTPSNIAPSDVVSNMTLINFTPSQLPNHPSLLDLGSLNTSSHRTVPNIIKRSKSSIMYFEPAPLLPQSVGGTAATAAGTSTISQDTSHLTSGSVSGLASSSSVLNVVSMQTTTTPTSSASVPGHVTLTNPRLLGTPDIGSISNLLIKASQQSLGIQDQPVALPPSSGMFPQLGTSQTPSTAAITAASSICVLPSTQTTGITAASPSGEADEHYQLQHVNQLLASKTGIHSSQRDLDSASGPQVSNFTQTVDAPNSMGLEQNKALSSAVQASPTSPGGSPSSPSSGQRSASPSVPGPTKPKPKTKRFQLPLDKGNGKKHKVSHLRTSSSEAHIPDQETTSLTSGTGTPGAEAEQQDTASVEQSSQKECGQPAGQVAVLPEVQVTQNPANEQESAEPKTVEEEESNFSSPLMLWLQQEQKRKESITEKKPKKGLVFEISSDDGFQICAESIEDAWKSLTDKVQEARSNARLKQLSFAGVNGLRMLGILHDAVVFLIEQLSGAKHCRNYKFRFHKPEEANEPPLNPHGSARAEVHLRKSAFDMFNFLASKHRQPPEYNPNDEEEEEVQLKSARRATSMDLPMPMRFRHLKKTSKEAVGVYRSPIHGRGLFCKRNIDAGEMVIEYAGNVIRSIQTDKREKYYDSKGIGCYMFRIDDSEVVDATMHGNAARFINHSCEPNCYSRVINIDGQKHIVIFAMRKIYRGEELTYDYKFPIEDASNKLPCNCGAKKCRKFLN
UniProt P05412: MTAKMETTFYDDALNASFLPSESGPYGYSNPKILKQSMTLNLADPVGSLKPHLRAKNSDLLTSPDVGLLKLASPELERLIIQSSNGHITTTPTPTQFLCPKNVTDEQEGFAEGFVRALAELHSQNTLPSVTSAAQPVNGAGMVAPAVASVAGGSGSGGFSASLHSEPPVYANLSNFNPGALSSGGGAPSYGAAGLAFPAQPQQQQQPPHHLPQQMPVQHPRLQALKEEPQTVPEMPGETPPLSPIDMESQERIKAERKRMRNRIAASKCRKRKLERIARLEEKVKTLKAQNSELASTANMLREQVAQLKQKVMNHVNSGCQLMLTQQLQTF

No constants are given. Whether binding was seen depends on the method and setting. Binding seen in cells or lysates may run through a third protein. Some binding calls cover weakened binding; strength is not graded here.

Regarding “Transcription factor AP-1/JUN (from UniProt P05412 1-331)”, the binding entry was “binds”.

The values are drawn from publication PMC10680327.
